The record followed here is publication PMC6168860, “Dual Role of a Viral Polymerase in Viral Genome Replication and Particle Self-Assembly” (mBio, 2018).

No constants are given. Whether binding was seen depends on the method and setting. Some results given as binding are weak or reduced against the parent protein; the word gives no strength. Tags and fused reporters may be left off the sequences shown.

For the test, the target named is T1, Pseudomonas phage Φ6 major capsid protein P1 (Pseudomonas phage Φ6) (UniProt P11126).
T1 sequence: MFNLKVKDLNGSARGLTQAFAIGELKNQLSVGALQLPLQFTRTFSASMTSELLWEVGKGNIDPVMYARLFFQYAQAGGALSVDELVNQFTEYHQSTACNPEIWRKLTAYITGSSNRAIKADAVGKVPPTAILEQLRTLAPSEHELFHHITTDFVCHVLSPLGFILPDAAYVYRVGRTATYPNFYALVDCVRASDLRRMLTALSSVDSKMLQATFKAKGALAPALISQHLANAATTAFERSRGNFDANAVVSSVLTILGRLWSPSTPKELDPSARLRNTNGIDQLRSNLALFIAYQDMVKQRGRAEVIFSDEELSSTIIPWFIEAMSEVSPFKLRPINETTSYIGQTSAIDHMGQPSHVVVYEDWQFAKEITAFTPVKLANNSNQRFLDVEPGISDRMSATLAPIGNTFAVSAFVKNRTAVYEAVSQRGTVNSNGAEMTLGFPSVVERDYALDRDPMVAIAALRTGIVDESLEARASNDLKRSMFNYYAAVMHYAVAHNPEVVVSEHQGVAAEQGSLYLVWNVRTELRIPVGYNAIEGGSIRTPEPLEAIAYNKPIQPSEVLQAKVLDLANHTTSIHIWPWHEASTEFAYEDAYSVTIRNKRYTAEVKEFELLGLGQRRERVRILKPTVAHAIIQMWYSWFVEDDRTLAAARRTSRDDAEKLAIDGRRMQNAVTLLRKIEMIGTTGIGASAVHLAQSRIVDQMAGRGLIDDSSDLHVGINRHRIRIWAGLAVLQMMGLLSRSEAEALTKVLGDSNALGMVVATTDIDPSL
The test is described as follows: co-sedimentation; in vitro self-assembly of purified P1, P4 (120:72) and P2 or P2 variant at 1×P2 (P1:P2 120:12), no P7; room temperature, 90 min, 250 to 350 mM NaCl, 20 mM Tris pH 8.0, 6% PEG 4000; rate-zonal centrifugation in 10% to 30% sucrose, P2 copies per particle from SDS-PAGE; both purified.

B1: Φ6 P2 surface mutant HERW (histidine-tagged) (enzyme, Pseudomonas phage Φ6, UniProt P11124 1-665, looked up)
chain: MPRRAPAFPLSDIKAQMLFANNIKAQQASKRSFKEGAIETYEGLLSVDPRFLSFKNELSRYLTDHFPANVDEYGRVYGNGVRTNFFGMRHMNGFPMIPATWPLASNLKKRADADLADGPVSERDNLLFRAAVRLMFSDLEPVPLKIRKGSSTCIPYFSNDMGTKIEIAERALEKAEEAGNLMLQGKFDDAYQLHQMGGAYYVVYRAQSTDAITLDPKTGKFVSKDRMVADFEYAVTGGEQGSLFAASKDASRLKEQYGIDVPDGFFCERRRTAMGGPFALNAPIMAVAQPVRNKIYSKYAYTFHHTTRLNKEEKVKEWSLCVATDVSDHDTFWPGWLRDLICDELLNMGYAPWWVKLFETSLKLPVYVGAPAPEQGHTLLGDPSNPDLEVGLSSGQGATDLMGTLLMSITYLVMQLDHTAPHLNSRIKDMPSACRFLDSYWQGAQEIRQISKSDDAILGWTKGRALVGGHALFEMLKEGKVNPSPYMKISYEHGGAFLGDILLYDSRREPGSAIFVGNINSMLNNQFSPEYGVQSGVRDRSKRKRPFPGLAWASMKDTYGACPIYSDVLEAIERCWANAFGESYRAYREDMLKRDTLELSRYVASMARQAGLAELTPIDLEVLADPNKLQYKWTEADVSANIHEVLMHGVSVEKTERFLRSVMPR
notes: source: E. coli BL21(DE3), plasmid pXS30, purified as described for N-terminally histidine-tagged P2; not shown: His6, C-terminal, kept
As to B1, the binding result is “binds weakly”.
